{"source": "patent US20240299356A1", "about": "“DEVELOPMENT OF PRMT-TARGETING THERAPY TO ENHANCE EGFR-TARGETING DRUG EFFICACY IN NSCLC” (The Regents of the University of California, priority 2021, published 2024)", "key": {"[1]": {"tested_on": "P-STAT1", "experiment": "P-STAT1 expression", "type": "cell-based", "conditions": "FIG. 5F"}, "[2]": {"tested_on": "PC9", "experiment": "Drug tolerance assay: surviving fraction of PC9 cells under continuous erlotinib", "type": "cell-based", "conditions": "JAK inhibition, PC9/erlotinib (FIG. 2B)", "excerpt": "FIGS. 1A-1F present exemplary data showing that Type I PRMT inhibition reduced IFNγ signaling-modulated drug tolerance. FIG. 1A present a three-step approach aimed at investigating drug tolerance. FIG. 1B is a line graph showing PC9 cell viabilities under six-day treatment of various doses of erlotinib in the context of IFNγ. […] FIG. 1E is a line graph showing that inhibition of type I PRMTs by MS023 reduced cancer drug tolerance specifically in the IFNγ/STAT1 activation context (normalized to DMSO controls in corresponding IFNγ contexts). Tolerance model for FIG. 1E: PC9 treated with 2.5 μM erlotinib for six days. […] Tolerance model: PC9 treated with 2.5 μM erlotinib.\nFIGS. 4A-4F present exemplary data showing that Type I PRMT inhibition reduces IFNγ signaling-modulated drug tolerance. FIG. 4A is a line graph showing the pro-survival effects of IFNγ in a variety of cell types with the cytotoxic inducers. Six-day tolerance assay in lung cancer cells was performed under 2.5 μM erlotinib or 50 μM carboplatin. FIG. 4B is a line graph showing PC9 cells co-treated with IFNγ and cytotoxic stressors (EGFR inhibitor Gefitinib, PARP inhibitor olaparib, death ligand TRAIL, procaspase-3 activator PAC-1), and cell viabilities were measured by Cell TiterGlo after six days. FIG. 4C is a bar-graph showing PRMT1 knockdown efficiency measured by qPCR after two days of siRNA transfection. […]"}}, "note": "At least one compound was matched to its structure with a doubt left."}
{"smiles": "N#CC[C@H](C1CCCC1)n1cc(-c2ncnc3[nH]ccc23)cn1", "note": "[ruxolitinib]", "values": [{"measurement": "P-STAT1 expression", "setting": "[1]", "result": "dose-dependently decreased P-STAT1 expression"}, {"measurement": "drug tolerance in the context of IFNγ", "setting": "[2]", "result": "dose-dependently increased drug tolerance"}]}
